Laboratory results: patent US20170355691A1, “PESTICIDALLY ACTIVE HETEROCYCLIC DERIVATIVES WITH SULPHUR CONTAINING SUBSTITUENTS” (Syngenta Participations AG, priority 2015, published 2017)
Some entries share one result that the patent states for a list of compounds.

system: Aedes aegypti (yellow fever mosquito); test: Activity against Aedes aegypti, dry deposit in tissue culture plates (Example B10); assay type: in vivo; settings: 200 ppm in ethanol, adult females, after 48 h and/or 24 h

Row | Compound | control of Aedes aegypti
1 | CCS(=O)(=O)c1cc(C(F)(F)F)ccc1-n1cc(-c2cccc(C(F)(F)F)c2)cn1 [Compound P1.9] | at least 80%
2 | CCS(=O)(=O)c1cc(C(F)(F)F)ccc1-n1cc(-c2ccc(C(F)(F)F)nc2)cn1 [Compound P1.14] | at least 80%
3 | CCS(=O)(=O)c1cc(C(F)(F)F)ccc1-n1ncc(-c2ccc(C(F)(F)F)cc2)c1C [Compound P1.15, 1-[2-ethylsulfonyl-4-(trifluoromethyl)phenyl]-5-methyl-4-[4-(trifluoromethyl)phenyl]pyrazole] | at least 80%
4 | CCS(=O)(=O)c1cc(C(F)(F)F)ccc1-n1ncc(-c2cccc(C(F)(F)F)c2)c1C [Compound P1.16] | at least 80%
